These results are taken from PubChem BioAssay AID248 (DTP/NCI, 2004).

The list is a part of this screen's results and no random one: it gathers tests that were run many times, whatever their T/C, doses with no T/C, and many T/C values between a quarter and a half above the control. Further doses and runs are listed elsewhere. T/C is the treated group as % of the vehicle group. Some doses have a count of surviving animals in place of a T/C: the source holds a T/C of zero for them, seemingly a mark for toxic or unscored doses. Some doses without a T/C left all or most animals alive at the check, yet need not have been tolerated: survival well below the control is almost never listed, so the zero probably covers shortened survival too. Counts of survivors are from the toxicity check (mostly the fifth day) where no day follows; animals may have died later. Schedules are NCI's codes, taken here to give the interval after Q, in days (D) or hours (H), and the number of doses after X. Some entries hold several experiments; their values stand side by side, smallest first. Some schedule codes hold Z or #, which are not explained here. Some molecules as drawn cover several salts, stereoisomers or complexes of the source; a dose is that of the sample tested. Where survival is the endpoint, this PubChem deposit counts one and a half times the control or more as active, and values a quarter to a half above the control carry no call in these data; other NCI protocols may use other cut-offs. Brackets with × say how often a value occurs here.

For this experiment, the system named is L1210 leukemia ip in BDF1 mice, survival T/C. The experiment in a line: NCI In Vivo Anticancer Drug Screen. Data for tumor model L1210 Leukemia (intraperitoneal) in B6D2F1 (BDF1) mice. Particulars: T/C endpoint: mean survival time, higher T/C = longer survival.
Setting [1] is: dose: 400.0 mg/kg/injection, schedule: Q04DX003 (ip), vehicle: Klucel (hydroxypropylcellulose) (HPC).
[2] abbreviates: dose: 200.0 mg/kg/injection, schedule: Q04DX003 (ip), vehicle: Klucel (hydroxypropylcellulose) (HPC).
Where [3] appears, read: dose: 50.0 mg/kg/injection, schedule: Q01DX001 (ip), vehicle: carboxymethylcellulose (CMC).
Setting [4] is: dose: 100.0 mg/kg/injection, schedule: Q01DX001 (ip), vehicle: carboxymethylcellulose (CMC).
Setting [5] is: dose: 200.0 mg/kg/injection, schedule: Q01DX001 (ip), vehicle: carboxymethylcellulose (CMC).
Setting [6] is: dose: 400.0 mg/kg/injection, schedule: Q01DX001 (ip), vehicle: carboxymethylcellulose (CMC).
Setting [7] is: dose: 200.0 mg/kg/injection, schedule: Q04DX003 (ip), vehicle: other.
Where [8] appears, read: dose: 400.0 mg/kg/injection, schedule: Q04DX003 (ip), vehicle: other.
Where [9] appears, read: dose: 200.0 mg/kg/injection, schedule: Q01DX009 (ip), vehicle: saline with Tween-80.

For `C[n+]1ccc(NC(=O)c2ccc(NC(=O)c3ccc(C(=O)Nc4ccc(C(=O)Nc5cc[n+](C)cc5)cc4)c(N)c3)cc2)cc1`, the survivor count (dose: 60.0 mg/kg/injection, schedule: Q01DX Z (ip), vehicle: water) was 3 of 6; the survivor count (dose: 100.0 mg/kg/injection, schedule: Q01DX Z (ip), vehicle: water) is recorded as 6 of 6; the survivor count (dose: 125.0 mg/kg/injection, schedule: Q01DX Z (ip), vehicle: carboxymethylcellulose (CMC)) is 0 of 6; the survivor count (dose: 250.0 mg/kg/injection, schedule: Q01DX Z (ip), vehicle: carboxymethylcellulose (CMC)) is given as 0 of 6; the survivor count (dose: 500.0 mg/kg/injection, schedule: Q01DX Z (ip), vehicle: carboxymethylcellulose (CMC)) is given as 0 of 6.

As for `N/C(=N\N=C\c1cccc2ccccc12)N/N=C/c1cccc2ccccc12`, the survivor count reads like this: (dose: 480.0 mg/kg/injection, schedule: Q01DX Z (ip), vehicle: methylcellulose (MC)) 2 of 6; (dose: 650.0 mg/kg/injection, schedule: Q01DX Z (oral), vehicle: methylcellulose (MC)) 4 of 6; (dose: 750.0 mg/kg/injection, schedule: Q01DX Z (oral), vehicle: methylcellulose (MC)) 3 of 6.

In the case of `CCOP(=O)(CCl)NC12CC3CC(CC(C3)C1)C2` (configuration not stated), the survivor count under setting [1] is reported as 3 of 6.

As for `COC(=O)c1cc2ccccc2c2c1OCN(C)C2`, the survivor count was 0 of 4 (dose: 200.0 mg/kg/injection, schedule: Q01DX001 (ip), vehicle: saline) and 0 of 4 (dose: 400.0 mg/kg/injection, schedule: Q01DX001 (ip), vehicle: saline).

Take `Nc1nc(N)c(-c2ccc(Cl)c(Cl)c2)c(CBr)n1`: the T/C (dose: 6.25 mg/kg/injection, schedule: Q01DX009 (ip), vehicle: saline with Tween-80) is 135 % of control. The survivor count is, setting by setting: under setting [2], 5 of 6; under setting [1], 3 of 6.

As to `Cc1c2cnccc2c(C)c2c1c1ccccc1n2C`, where the note is “dose: 150.0 mg/kg/injection, schedule: Q01DX Z (ip), vehicle: saline”, the T/C was 134 % of control.

For the compound `O=C(CI)OCC#CCOC(=O)CI`, the survivor count reads like this: (dose: 25.0 mg/kg/injection, schedule: Q01DX009 (ip), vehicle: carboxymethylcellulose (CMC)) 3 of 3; (dose: 25.0 mg/kg/injection, schedule: Q04DX002 (ip), vehicle: carboxymethylcellulose (CMC)) 3 of 3; (dose: 50.0 mg/kg/injection, schedule: Q01DX009 (ip), vehicle: carboxymethylcellulose (CMC)) 2 of 3 and 5 of 6; (dose: 100.0 mg/kg/injection, schedule: Q04DX002 (ip), vehicle: carboxymethylcellulose (CMC)) 2 of 3 and 6 of 6; (dose: 200.0 mg/kg/injection, schedule: Q04DX002 (ip), vehicle: carboxymethylcellulose (CMC)) 0 of 3 and 1 of 6; (dose: 400.0 mg/kg/injection, schedule: Q04DX002 (ip), vehicle: carboxymethylcellulose (CMC)) 1 of 3 and 5 of 6.

As to `CN1c2ccccc2C(C)(C)C12C=Cc1ccccc1O2` (configuration not stated), the survivor count runs as follows: (dose: 100.0 mg/kg/injection, schedule: Q04DX002 (ip), vehicle: gum acacia) 3 of 3; (dose: 400.0 mg/kg/injection, schedule: Q04DX002 (ip), vehicle: gum acacia) 1 of 3.

`CN(C)C1C2(C)CCC(C2)C1(C)C` (configuration not stated): the survivor count is on record as 0 of 4 under setting [3]; 1 of 4 (dose: 80.0 mg/kg/injection, schedule: Q01DX001 (ip), vehicle: carboxymethylcellulose (CMC)); 0 of 4 under setting [4]; 0 of 4 under setting [5]; 0 of 4 under setting [6].

`CSc1ncc(Br)c(N2CC2)n1`: the survivor count is recorded as 1 of 6 (dose: 133.0 mg/kg/injection, schedule: Q01DX Z (ip), vehicle: methylcellulose (MC)) and 0 of 6 (dose: 200.0 mg/kg/injection, schedule: Q01DX Z (ip), vehicle: methylcellulose (MC)).

Turning to `Cc1c2ccc3ccccc3c2c[n+]2ccccc12`, for the setting “dose: 16.0 mg/kg/injection, schedule: Q01DX009 (ip), vehicle: saline sonified”, the T/C was 125 and 136 % of control. The survivor count is given as 4 of 4 under setting [3], 4 of 4 under setting [4], 4 of 4 under setting [5] and 4 of 4 under setting [6].

Regarding `O=C1C(O)=C(Cl)C(=O)C(OC2=C(Cl)C(=O)C(OC3=C(Cl)C(=O)C(OC4=C(Cl)C(=O)C(Cl)=C(Cl)C4=O)=C(Cl)C3=O)=C(Cl)C2=O)=C1Cl`, the survivor count (dose: 400.0 mg/kg/injection, schedule: Q04DX003 (ip), vehicle: saline) is listed as 3 of 6.

For the compound `O=C(O)c1ccc[n+]([O-])c1`, where the note is “dose: 400.0 mg/kg/injection, schedule: Q04DX003 (ip), vehicle: saline with Tween-80”, the survivor count is given as 2 of 3.

Consider `Nc1cc([N+](=O)[O-])cc([N+](=O)[O-])c1`, for which the survivor count under setting [6] is 2 of 4.

Regarding `[O-][n+]1c(Cl)nc(Cl)c(Cl)c1C(Cl)(Cl)Cl`, the survivor count runs as follows: (dose: 100.0 mg/kg/injection, schedule: Q04DX003 (ip), vehicle: other) 0 of 3; under setting [7], 0 of 3; under setting [8], 0 of 3.

For the compound `Cc1ccc(Cl)cc1NC(=O)Nc1cccc(C(F)(F)F)c1`, the T/C (dose: 100.0 mg/kg/injection, schedule: Q01DX009 (ip), vehicle: saline with Tween-80) was 91, 93, 94, 97 % of control. Under setting [9], the T/C was 92 % of control (2×) and the survivor count is reported as 3 of 3.

Take `C1#CCCCCCC#CCCCC1`: the survivor count is, setting by setting: (dose: 225.0 mg/kg/injection, schedule: Q01DX009 (ip), vehicle: acetone) 0 of 6; (dose: 300.0 mg/kg/injection, schedule: Q01DX001 (ip), vehicle: acetone) 3 of 6; (dose: 340.0 mg/kg/injection, schedule: Q01DX009 (ip), vehicle: acetone) 0 of 6.

As to `C[n+]1ccc(Nc2ccc(NC(=O)c3ccc(Nc4cc[n+](C)c5ccc([N+](=O)[O-])cc45)cc3)cc2)cc1`, the T/C is, setting by setting: (dose: 50.0 mg/kg/injection, schedule: Q04DX003 (ip), vehicle: saline) 144 % of control; (dose: 200.0 mg/kg/injection, schedule: Q04DX003 (ip), vehicle: saline) 147 % of control.

Consider `CC(Br)(C(CC(=O)C1CC1)c1ccccc1)[N+](=O)[O-]` (configuration not stated), for which the survivor count is, setting by setting: (dose: 25.0 mg/kg/injection, schedule: Q01DX009 (ip), vehicle: other) 6 of 6; (dose: 100.0 mg/kg/injection, schedule: Q01DX009 (ip), vehicle: other) 3 of 6; under setting [7], 2 of 6; under setting [8], 0 of 6.

`OCCN1CCC(CCCC2CCNCC2)CC1`: the survivor count (dose: 100.0 mg/kg/injection, schedule: Q01DX Z (ip), vehicle: saline) is recorded as 0 of 6 and the survivor count (dose: 300.0 mg/kg/injection, schedule: Q01DX Z (ip), vehicle: saline) is 0 of 6.

`O=C(Nc1ccccc1F)Oc1ccc(Cl)cc1Cl`: the survivor count is 4 of 6 (dose: 300.0 mg/kg/injection, schedule: Q01DX009 (ip), vehicle: Klucel (hydroxypropylcellulose) (HPC)); 4 of 6 (dose: 400.0 mg/kg/injection, schedule: Q01DX009 (ip), vehicle: Klucel (hydroxypropylcellulose) (HPC)); 3 of 3 (dose: 400.0 mg/kg/injection, schedule: Q04DX002 (ip), vehicle: Klucel (hydroxypropylcellulose) (HPC)).

Consider `CC(C)(C)N1CC1C(=O)Sc1ccccc1` (configuration not stated), for which the survivor count reads like this: (dose: 100.0 mg/kg/injection, schedule: Q04DX003 (ip), vehicle: Klucel (hydroxypropylcellulose) (HPC)) 6 of 6; under setting [2], 3 of 6; under setting [1], 0 of 6.

`CC/C=C/C1(C(C)C)C(=O)NC(=O)NC1=O`: where the note is “dose: 300.0 mg/kg/injection, schedule: Q01DX001 (ip), vehicle: saline”, the survivor count is reported as 0 of 6.
